From the supplement of paper PMC6078165
The reference is the same well before dosing, and untreated signal decays as well.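 Labels refer to human fibroblasts, largely primary: uterine (C12385, HUF), lung (H6013), bone (Hs27A), adrenal (HADF), skin (WS1), plus mammary HMF and breast cancer-associated Hs343T. Cancer lines are basal-like or mesenchymal-like triple-negative breast cancer. The paper counts as hits responses shifting over 3x the replicate standard deviation. The tissue of the other fibroblasts is not given here.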

Tested on: BT20
Experiment: relative JC-1 red fluorescence (viability) vs pre-drug, coculture with fibroblast (fraction); higher = more viable cancer cells
Experimental: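 JC-1 labelled TNBC cells cocultured 1:1 (1,500 cells each) with CellTrace Violet stained primary or stromal fibroblasts in 384-well plates in FluoroBrite medium, treated with one of 42 anticancer drugs at 0.1, 1, 10 or 100 uM. JC-1 red fluorescence (mitochondrial integrity in cancer cells only) was read by plate reader every 8 h for 72 h. Values are normalised to each well's pre-drug value. The stock of one drug was tenfold lower, so its dose labels may be too high.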

O=C1c2c(O)ccc(O)c2C(=O)c2c(NCCNCCO)ccc(NCCNCCO)c21 [Mitoxantrone]
relative JC-1 red fluorescence
Conditions | 8 h | 16 h | 24 h | 32 h | 40 h | 48 h | 56 h | 64 h | 72 h
0.1 µM, coculture fibroblast: C12385 | 0.8022 | 0.753 | 0.6698 | 0.592 | 0.549 | 0.529 | 0.517 | 0.502 | 0.494
0.1 µM, coculture fibroblast: H6013 | 0.9151 | 0.826 | 0.757 | 0.7 | 0.643 | 0.61 | 0.597 | 0.581 | 0.576
0.1 µM, coculture fibroblast: H6019 | 0.795 | 0.744 | 0.699 | 0.643 | 0.608 | 0.606 | 0.589 | 0.577 | 0.575
0.1 µM, coculture fibroblast: H6076 | 0.828 | 0.869 | 0.816 | 0.81 | 0.785 | 0.783 | 0.792 | 0.8 | 0.792
0.1 µM, coculture fibroblast: H6231 | 0.921 | 0.912 | 0.794 | 0.712 | 0.668 | 0.613 | 0.593 | 0.571 | 0.548
0.1 µM, coculture fibroblast: HADF | 0.964 | 0.872 | 0.786 | 0.728 | 0.671 | 0.618 | 0.605 | 0.585 | 0.55
0.1 µM, coculture fibroblast: HCFa | 0.9 | 0.813 | 0.7373 | 0.677 | 0.618 | 0.563 | 0.537 | 0.515 | 0.471
0.1 µM, coculture fibroblast: HCPF | 0.98276 | 0.861 | 0.786 | 0.745 | 0.7043 | 0.6874 | 0.646 | 0.631 | 0.599
0.1 µM, coculture fibroblast: HHSteC | 0.8684 | 0.804 | 0.768 | 0.707 | 0.659 | 0.606 | 0.59 | 0.567 | 0.539
0.1 µM, coculture fibroblast: HMF | 0.986 | 0.878 | 0.755 | 0.697 | 0.638 | 0.599 | 0.568 | 0.542 | 0.517
0.1 µM, coculture fibroblast: HPFa | 0.87751 | 0.8058 | 0.834 | 0.745 | 0.709 | 0.657 | 0.655 | 0.631 | 0.602
0.1 µM, coculture fibroblast: HUF | 0.8429 | 0.776 | 0.799 | 0.75 | 0.71 | 0.6771 | 0.675 | 0.664 | 0.655
0.1 µM, coculture fibroblast: Hs5 | 0.933 | 0.888 | 0.842 | 0.8006 | 0.7824 | 0.768 | 0.766 | 0.742 | 0.735
0.1 µM, coculture fibroblast: Hs27A | 0.82744 | 0.964 | 0.936 | 0.898 | 0.869 | 0.842 | 0.854 | 0.865 | 0.846
0.1 µM, coculture fibroblast: Hs343T | 0.971 | 0.822 | 0.7273 | 0.66 | 0.616 | 0.576 | 0.554 | 0.549 | 0.518
0.1 µM, coculture fibroblast: WS1 | 0.803 | 0.741 | 0.67 | 0.601 | 0.558 | 0.538 | 0.529 | 0.512 | 0.507
1 µM, coculture fibroblast: C12385 | 0.472 | 0.47 | 0.541 | 0.534 | 0.4883 | – | – | – | –
1 µM, coculture fibroblast: H6013 | 0.612 | 0.657 | 0.788 | 0.713 | 0.677 | – | – | – | –
1 µM, coculture fibroblast: H6019 | 0.466 | 0.423 | 0.473 | 0.454 | 0.435 | – | – | – | –
1 µM, coculture fibroblast: H6076 | 0.788 | 0.7945 | 0.877 | 0.885 | 0.885 | – | – | – | –
1 µM, coculture fibroblast: H6231 | 0.809 | 0.708 | 0.815 | 0.773 | 0.767 | – | – | – | –
1 µM, coculture fibroblast: HADF | 0.646 | 0.688 | 0.801 | 0.743 | 0.74 | – | – | – | –
1 µM, coculture fibroblast: HCFa | 0.629 | 0.665 | 0.765 | 0.698 | 0.706 | – | – | – | –
1 µM, coculture fibroblast: HCPF | 0.748 | 0.744 | 0.808 | 0.821 | 0.813 | – | – | – | –
1 µM, coculture fibroblast: HHSteC | 0.617 | 0.722 | 0.867 | 0.7881 | – | – | – | – | –
1 µM, coculture fibroblast: HMF | 0.774 | 0.771 | 0.788 | 0.748 | – | – | – | – | –
1 µM, coculture fibroblast: HPFa | 0.654 | 0.75 | 0.914 | 0.89 | – | – | – | – | –
1 µM, coculture fibroblast: HUF | 0.534 | 0.538 | 0.604 | 0.5624 | – | – | – | – | –
1 µM, coculture fibroblast: Hs5 | 0.786 | 0.805 | 0.853 | 0.831 | – | – | – | – | –
1 µM, coculture fibroblast: Hs27A | 0.738 | 0.744 | 0.922 | 0.868 | – | – | – | – | –
1 µM, coculture fibroblast: Hs343T | 0.783 | 0.721 | 0.753 | 0.707 | – | – | – | – | –
1 µM, coculture fibroblast: WS1 | 0.466 | 0.416 | 0.46 | 0.43219 | – | – | – | – | –
